Source: PubChem BioAssay AID2685 (National Center for Advancing Translational Sciences (NCATS), 2010)
The other results are listed elsewhere or left out. Shown are side measurements of this screen, not its main read-out; they come without a call. Compounds called inactive in the main read-out are mostly missing here. Potencies come from curve fits of mixed quality, noted in brackets.

Assay: qHTS Assay for Lipid Storage Modulators in Drosophila S3 Cells;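 on cell number change: cells counted by Cell Tracker Red CMTPX staining in the red channel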
Conditions: BODIPY lipid droplet fluorescence, 18-24 h; for cell number change: measured here: cell count max response, cells fed with added oleic acid
Method in brief: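 Drosophila S3 cells loaded with oleic acid (400 uM, as added) and compounds at several concentrations; lipid droplets imaged by 488-nm laser-scanning cytometry, 500–530 nm intensity and object ratio to cell channel. Percent activity normalized to 20 uM Triacsin C.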

[1] = measured here: lipid fluorescence (Fed channel) AC50, cells fed with added oleic acid
[2] = measured here: cell number channel AC50, cells fed with added oleic acid

Structure (SMILES) | cell number change [%] | AC50 [1] | AC50 [2]
CNc1snc(C)c1C(=O)OC(C)C(=O)c1ccc(F)cc1 (stereo unspecified) | 13.7 | 18.4 µM [rising, single point] | 
O=C(CN1C(=O)c2cccc3cccc1c23)NC1CCCC1 | -30.3 |  | 29.1 µM [falling, single point]
O=C(Nc1cccc(Cl)c1)NC1CC2CCC(C1)N2Cc1ccco1 (stereo unspecified) |  |  | 0.58 µM [rising, single point]
O=C(CCCc1nc2ccccc2s1)N1CCN(S(=O)(=O)c2cccs2)CC1 | 31.2 | 29.1 µM [rising, single point] | 20.6 µM [rising, single point]
N#CCCn1c(SCC(=O)N2CCN(S(=O)(=O)c3ccccc3)CC2)nc2ccccc21 | -11.9 | 0.92 µM [rising, full curve] | 
Cc1ccccc1NC(=O)c1ccccc1NC(=O)c1ccccc1F | 13.7 | 0.058 µM [rising, full curve, poor fit] | 
CC1CCCC(C)N1CCNC(=O)C1CCN(S(=O)(=O)N2CCCCC2)CC1 (stereo unspecified) | -28.3 | 3.66 µM [falling, full curve] | 3.66 µM [falling, full curve, poor fit]
CC(C)(C)OC(=O)N/N=C/c1cc(N=Nc2ccccc2)ccc1O | -30.9 | 16.4 µM [falling, single point] | 16.4 µM [falling, single point]
COCCn1nnnc1C(c1ccc2ncccc2c1)N1CCN(c2ccccc2F)CC1 (stereo unspecified) | 13.7 | 2.59 µM [rising, single point] | 
Cc1c(C(=O)N2CCCC2)c(S(=O)(=O)Nc2ccccc2Cl)c(C)n1C | 1.32 |  | 
Cn1c(SCC(=O)c2ccc(F)cc2)nnc1-c1cccnc1 | 15.9 | 1.46 µM [rising, full curve] | 
CCCNC(=O)N[C@@H](Cc1ccccc1)C(=O)OC | -35.5 | 6.51 µM [falling, partial curve] | 0.731 µM [falling, full curve]
COc1ccc(OCC(O)CNc2ccc(Br)cc2)cc1 (stereo unspecified) | -23.5 | 0.13 µM [falling, full curve, poor fit] | 
Cc1ccc(C)c(NC(=O)CCN2CCN(c3ccccc3F)CC2)c1 | 25.7 | 29.1 µM [rising, single point] | 
O=C(Nc1cccnc1)Nc1cc(Cl)cc(Cl)c1 | -62.5 | 29.1 µM [falling, single point] | 25.9 µM [falling, partial curve]
CCc1ccc(CN2C(=O)c3ccccc3C2C(=O)NCc2cccnc2)cc1 (stereo unspecified) |  | 0.13 µM [falling, full curve, poor fit] | 
CC(=O)c1ccc(N2CCN(CC(=O)N(CC(C)C)c3c(N)n(CC(C)C)c(=O)[nH]c3=O)CC2)cc1 | -22.1 | 0.731 µM [falling, full curve] | 
CC(C)NC(=O)Cn1c(SCC(=O)NC2CCCC2)nc2ccccc21 | 14 | 3.26 µM [rising, partial curve] | 
CCOc1ccc(-c2nnn(CC(=O)c3ccc4c(c3)OCCO4)n2)cc1 | -22.3 |  | 
O=C(O)c1ccc(CN2CCOCC2)o1 | 26 | 0.651 µM [rising, partial curve, poor fit] | 

Three compounds from above, ordered by formula weight, rising:
Structure (SMILES) | cell number change [%] | AC50 [1] | AC50 [2]
O=C(CN1C(=O)c2cccc3cccc1c23)NC1CCCC1 | -30.3 |  | 29.1 µM [falling, single point]
CCOc1ccc(-c2nnn(CC(=O)c3ccc4c(c3)OCCO4)n2)cc1 | -22.3 |  | 
O=C(CCCc1nc2ccccc2s1)N1CCN(S(=O)(=O)c2cccs2)CC1 | 31.2 | 29.1 µM [rising, single point] | 20.6 µM [rising, single point]

Going on with the list:

Structure (SMILES) | cell number change [%] | AC50 [1] | AC50 [2]
CCOc1ccc(C(=O)NC2=NCCS2)cc1 | 6.61 |  | 
CC[n+]1c(C)cc2c(sc3ccccc32)c1C | -1.2 |  | 
Cc1ccc(S(=O)(=O)n2nc(C)cc2C)cc1 | 27.1 | 6.51 µM [rising, single point] | 
COc1cc(/C=N/N2CCN(C3c4ccccc4-c4ccccc43)CC2)ccc1O |  | 6.51 µM [rising, single point] | 
COc1ccc(C(=O)NCC(=O)O)cc1 |  | 29.1 µM [falling, single point] | 
CC1CCCCC1NCC(=O)Nc1ccccc1-c1ccccc1 (stereo unspecified) | -54.3 | 29.1 µM [falling, single point] | 18.4 µM [falling, single point]
O=C(CSCc1cc(=O)n2nc(C3CC3)sc2n1)Nc1ccc(F)cc1 | 22.1 | 29.1 µM [rising, single point] | 
Cc1cccc(-n2nc3c(c2NC(=O)C2CC2)CS(=O)(=O)C3)c1C |  | 0.164 µM [rising, full curve, poor fit] | 
CC(C)CNC(=O)Cn1nc(C(F)(F)F)c2c1CCCC2 | 22.8 | 13 µM [rising, single point] | 
CCOC(=O)c1ccc(NC(=O)CCc2nc(-c3ccc(Cl)cc3)no2)cc1 | -40.5 | 29.1 µM [falling, single point] | 23.1 µM [falling, partial curve]
CCN(CC)C(=O)CSc1ncnc2sc(C)c(C)c12 | 9.89 | 0.103 µM [rising, full curve, poor fit] | 
Cc1ccc(Sc2ccc(/C=N/O)cc2[N+](=O)[O-])cc1 | -42.1 | 0.92 µM [falling, full curve] | 0.00411 µM [falling, full curve, poor fit]
Cc1ccc(NC(=O)CN(C)S(=O)(=O)c2cccc3cccnc23)cc1C | 8.65 | 16.4 µM [falling, single point] | 
CN(c1ccccc1)S(=O)(=O)c1cccc(NC(=O)Cn2cnc3ccccc3c2=O)c1 | 116 |  | 29.1 µM [rising, single point]
CCC1(c2ccc(Cl)cc2)NC(=S)N(c2ccc(C)cc2)N1 (stereo unspecified) | 32.5 |  | 8.2 µM [rising, partial curve]
CNc1ccc(/C=C2\CSc3ccccc3C2=O)cc1[N+](=O)[O-] | 39.4 |  | 
CC(=O)NC1CC2CCCC(C1)N2C(=O)Nc1ccc(Cl)c(C(F)(F)F)c1 (stereo unspecified) | 20.3 | 3.26 µM [falling, single point] | 0.651 µM [falling, full curve, poor fit]
COc1ccc([C@H]2Cc3cccc(O)c3C(=O)O2)cc1O | -14.2 | 0.116 µM [falling, full curve, poor fit] | 
CC(=O)N1CCN(C(=O)c2ccc(OC3CCN(Cc4ccccn4)CC3)cc2)CC1 |  | 18.4 µM [rising, partial curve, poor fit] | 
